Reference: paper PMC4820125
Whether high values mean tight binding is not given here for every scale.

Sequences of proteins named here, by UniProt entry; tags and fusion partners are left off.
UniProt P03372, whole entry: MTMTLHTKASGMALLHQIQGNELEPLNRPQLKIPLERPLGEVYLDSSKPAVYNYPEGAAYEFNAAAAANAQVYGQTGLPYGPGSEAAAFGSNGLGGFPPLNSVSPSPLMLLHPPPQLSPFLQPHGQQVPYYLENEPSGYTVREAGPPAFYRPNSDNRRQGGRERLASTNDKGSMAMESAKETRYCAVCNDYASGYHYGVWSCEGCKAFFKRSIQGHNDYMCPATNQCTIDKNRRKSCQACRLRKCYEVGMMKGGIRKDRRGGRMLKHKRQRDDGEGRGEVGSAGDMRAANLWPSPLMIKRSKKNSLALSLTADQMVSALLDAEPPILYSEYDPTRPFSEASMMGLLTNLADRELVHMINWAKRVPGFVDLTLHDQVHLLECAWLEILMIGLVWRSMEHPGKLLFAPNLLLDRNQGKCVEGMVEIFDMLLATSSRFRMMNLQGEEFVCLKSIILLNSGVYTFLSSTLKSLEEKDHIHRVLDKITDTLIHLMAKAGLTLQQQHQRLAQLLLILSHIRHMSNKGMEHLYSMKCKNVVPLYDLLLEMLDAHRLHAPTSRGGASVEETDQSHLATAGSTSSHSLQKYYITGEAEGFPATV

molecular target: ERα full length (UniProt P03372); assay: aptamer ELISA; conditions: 500 nM aptamer; ELISA: 2 h at RT, 2% BSA block; commercial protein; residues 1-595; label: biotin; single-stranded DNA

Binding signal (% of anti-ERα antibody signal), < 10:
ATACCAGCTTATTCAATTAGGTACAGAAGGCGCGACAGAAACTGCGGTCCCAGGGCGTAGATAGTATGTGCAATCA [ERaptD1]
ATACCAGCTTATTCAATTCACAGGGCTGTTTTTACGCAATGCTAGTGTTCGACTCAGTAGATAGTATGTGCAATCA [ERaptD9]
ATACCAGCTTATTCAATTCACTAATACTAGGCGGTCCACGCGCAGTTAAACCGGTCAAAGATAGTATGTGCAATCA [ERaptD10]
ATACCAGCTTATTCAATTCGCATAGGCAAAACGGTGCGGTGCATATTCGTGACAAGCGAGATAGTATGTGCAATCA [ERaptD6]
ATACCAGCTTATTCAATTGCAGCAGTGTCATATGAGGGCGTTCGTCAAATGTGCAGGGAGATAGTATGTGCAATCA [ERaptD5]
ATACCAGCTTATTCAATTGGACGGATGCACACACTACTGACCGGTTTTCGCCAGCCCCAGATAGTATGTGCAATCA [ERaptD7]
ATACCAGCTTATTCAATTGGCGGGCAGCGATTGTACCGGTACCACCTGGCAATGTAGAAGATAGTATGTGCAATCA [ERaptD2]
